The target in the test is T1, human LPAAT-β (Homo sapiens, UniProt O15120).
T1 construct: the full-length human LPAAT-β cDNA was amplified by PCR; poly-histidine tag (N); made in house; host or cells: Sf9 insect cells (baculovirus, pFastBac HTc); the membrane fraction was used as the enzyme
T1 sequence (O15120 24-278): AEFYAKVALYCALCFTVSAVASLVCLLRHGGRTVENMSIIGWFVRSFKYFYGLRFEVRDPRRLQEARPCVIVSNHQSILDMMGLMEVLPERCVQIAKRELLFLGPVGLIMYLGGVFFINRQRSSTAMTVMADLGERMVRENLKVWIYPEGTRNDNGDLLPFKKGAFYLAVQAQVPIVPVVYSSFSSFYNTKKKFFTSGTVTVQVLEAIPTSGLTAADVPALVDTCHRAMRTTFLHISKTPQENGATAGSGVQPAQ
Description: LPAAT-β cell-free assay. It is filed as biochemical. The conditions noted are these: Sf9 cell membrane overexpressing recombinant LPAAT-β. From the text:
For the construction of Baculovirus expression vectors, the full-length human LPAAT-β cDNA was amplified by PCR from the DNA template pCE9.LPAAT-β (West et al., DNA Cell Bid. 16.691-701 (1997)) using the primers 5′-[…] […] […]-3′ (olpb1F; SEQ ID NO:1) and 5′-[…] […] […]-3′ (olpb1R; SEQ ID NO:2). The ˜870 bp fragment generated was reamplified by PCR using the primers 5′ […] […] ATC-3′ (olpb2F; SEQ ID NO:3) and 5′-[…] […] […]-3′ (olpb1R; SEQ ID NO:2). The ˜890 bp fragment generated was then cleaved with Sal I and Xba I for insertion into pFastBac™ HTc vector (Life Technologies, Gaithersberg, M.d.) between the Sal I and Xba I sites for the generation of the plasmid pFB.LPAAT-β. […]
LPAAT-β catalyzes the transfer of an acyl group from a donor such as acyl-CoA to LPA. […] The absorbance at 405 nm, measured using a spectrophotometer plate reader, is proportional to the activity of LPAAT-2 in the sample. […]

pIC50: −log10 of the molar value.

In general, pIC50 refers to −log10 of the IC50, conventionally taken in molar units. In the case of `Nc1nc(Nc2ccc(C(F)(F)F)cc2)cc(-c2cccc(Cl)c2)n1` [Example 107, 6-(3-Chloro-phenyl)-N*4*-(4-trifuoromethyl-phenyl)-pyrimidine-2,4-diamine], the pIC50 is 6.51.

Source of the values: US7419984B2, “Pyrimidines and uses thereof” (Cell Therapeutics, Inc., priority 2002, dated 2008).
